Each structure is given as a SMILES string.

For the data set, the system named is hemin chloride (heme). The data set can be described thus: T1 measurements of the CQ protons with hemin chloride. In kind it is binding.

For `CCN(CC)CCCC(C)Nc1ccnc2cc(Cl)ccc12` (centres unmarked) [CQ, chloroquine, reference compound], the “T1 for CQ proton 1” value is, setting by setting: (10 mM CQ and 2 mM hemin chloride in 40% DMSO at pH 5.0) 0.70 s; (pH 7.0) 0.039 s.

The values are drawn from patent US20110045100A1, “Antimalarial Quinolines and Methods of Use Thereof” (GEORGETOWN UNIVERSITY, priority 2008, published 2011).
